Results taken from paper doi:10.1101/2020.11.12.379222.
Results are given in words; binding and its absence hold for the method and conditions named. Binding seen in cells or lysates may run through a third protein. Some results given as binding are weak or reduced against the parent protein; the word gives no strength.

Amino acid sequences for entries named in this document (tags omitted). A change or cut given only in a name is not applied to a line headed by its entry. Chains listed by the source or under a name are the forms on record and can include a tag or linker. Residues count along the entry.
SHANK3 SPN-ARR WT-mRFP (Q9JLU4, residues 1-348): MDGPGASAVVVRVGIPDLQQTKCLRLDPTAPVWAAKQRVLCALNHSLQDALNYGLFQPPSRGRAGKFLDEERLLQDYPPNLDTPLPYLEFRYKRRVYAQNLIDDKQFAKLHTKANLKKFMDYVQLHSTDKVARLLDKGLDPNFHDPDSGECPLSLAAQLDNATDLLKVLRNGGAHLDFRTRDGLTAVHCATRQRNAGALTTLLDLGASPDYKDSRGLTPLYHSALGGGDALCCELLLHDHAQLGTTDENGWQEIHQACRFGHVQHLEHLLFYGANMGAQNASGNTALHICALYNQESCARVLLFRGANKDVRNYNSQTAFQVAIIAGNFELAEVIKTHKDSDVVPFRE
GFP SHANK3 SPN domain, wild type (Q9JLU4, residues 1-92): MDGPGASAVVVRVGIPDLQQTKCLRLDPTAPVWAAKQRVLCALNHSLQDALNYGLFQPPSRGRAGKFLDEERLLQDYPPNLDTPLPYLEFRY
SHANK3 SPN-ARR N52R-mRFP (Q9JLU4, form named): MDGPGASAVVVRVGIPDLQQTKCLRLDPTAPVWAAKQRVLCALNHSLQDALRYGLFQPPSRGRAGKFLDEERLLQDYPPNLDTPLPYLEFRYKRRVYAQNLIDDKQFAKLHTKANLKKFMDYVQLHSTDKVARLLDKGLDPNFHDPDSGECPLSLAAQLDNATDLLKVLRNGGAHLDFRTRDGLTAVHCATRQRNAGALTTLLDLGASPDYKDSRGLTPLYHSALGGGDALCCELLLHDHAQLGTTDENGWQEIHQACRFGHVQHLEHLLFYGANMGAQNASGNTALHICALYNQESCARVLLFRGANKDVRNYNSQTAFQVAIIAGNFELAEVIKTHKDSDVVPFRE
UniProt P62834: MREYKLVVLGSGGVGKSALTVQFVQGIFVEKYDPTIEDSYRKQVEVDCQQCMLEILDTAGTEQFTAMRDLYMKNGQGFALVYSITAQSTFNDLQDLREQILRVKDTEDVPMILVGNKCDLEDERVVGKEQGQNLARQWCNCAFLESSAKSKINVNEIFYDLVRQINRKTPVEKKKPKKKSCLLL

Key:
[1] = biological target: His6/SUMO-tagged SHANK3 SPN-ARR, wild type (rat) (UniProt Q9JLU4); test: pull-down
[2] = biological target: SHANK3 SPN-ARR N52R-mRFP (rat) (UniProt Q9JLU4); test: co-IP
[3] = biological target: SHANK3 SPN-ARR WT-mRFP (rat) (UniProt Q9JLU4); test: co-IP

| binding [1] | binding [2] | binding [3] | Substance |
| --- | --- | --- | --- |
| binds |  |  | GFP Rap1 Q63E (constitutively active human Rap1A) (from UniProt P62834 1-184) |
|  | binds | no binding | GFP SHANK3 SPN domain, wild type (from UniProt Q9JLU4 1-92) (domain or fragment) |
